According to the supplement of paper PMC4807443:
Where a name gives a salt, the structure may show the parent alone. The list shows a part of the results. The numbers are fractions of the control, whatever unit the source prints. Most entries show no effect beyond the scatter of the controls.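 MIN6, a mouse insulinoma beta-cell line, stably carries a lentiviral reporter where Pdx1 and Ins1 promoters each drive a nuclear fluorescent protein; Hoechst staining and automated imaging counted cells. Drugs were candidate hits if Ins1 promoter readout exceeded two median absolute deviations from DMSO controls while Pdx1 activity stayed near normal.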

system: MIN6; experiment: % Pdx1+ Ins1+ (double-positive, mature) cells relative to DMSO control (fold of DMSO control); higher = more mature Ins1 promoter-active cells; details: 8.5 µM; 48 h; glucose 5 mM

Row | Structure (SMILES) | % Pdx1+ Ins1+
1 | CN(C)C(=O)Oc1cccc([N+](C)(C)C)c1 [Neostigmine bromide] | 1.07
2 | CNC(=O)Oc1ccc2c(c1)[C@]1(C)CCN(C)[C@@H]1N2C [Eserine sulfate, physostigmine sulfate] | 0.875
3 | CN1CCc2cc3c(cc2C1O)OCO3 (centres undefined) [Hydrastinine hydrochloride] | 1.09
4 | CCNCC(O)c1cccc(O)c1 (centres undefined) [Etilefrine hydrochloride] | 1.02
5 | CN1[C@@H]2CC[C@H]1C[C@@H](OC(=O)C(CO)c1ccccc1)C2 (some centres undefined) [Atropine sulfate monohydrate] | 0.974
6 | CC(C)C[C@H]1C(=O)N2CCC[C@H]2[C@]2(O)O[C@](NC(=O)[C@@H]3C=C4c5cccc6[nH]c(Br)c(c56)C[C@H]4N(C)C3)(C(C)C)C(=O)N12 [Bromocryptine mesylate] | 0.709
7 | CNC(C)(C)Cc1ccccc1 [Mephentermine hemisulfate] | 0.892
8 | CN1Cc2c(ccc3c2OCO3)C2C(O)Cc3cc4c(cc3C21)OCO4 (stereo not drawn) [Chelidonine (+)] | 0.942
9 | CN1CCC2=C[C@H](O)[C@H]3OC(=O)c4cc5c(cc4[C@H]3[C@@H]21)OCO5 [Hippeastrine hydrobromide] | 0.916
10 | CC1OC(OC2/C=C/C=C/C=C/C=C/CC/C=C/C=C/[C@H](C)[C@@H](O)[C@@H](C)[C@H](C)OC(=O)CC(O)CC(O)CC(O)CCC(O)C(O)C[C@]3(O)CC(O)C(C(=O)O)C(C2)O3)C(O)C(N)C1O (some centres undefined) [Nystatine] | 0.963
11 | NCCC(O)C(=O)NC1CC(N)C(OC2OC(CN)C(O)[C@H](O)[C@@H]2N)[C@H](OC2O[C@H](CO)[C@@H](O)[C@@H]2O)[C@@H]1O (some centres undefined) [Butirosin disulfate salt] | 0.918
12 | Cc1cc2c(C(C)C)c(O)c(O)c(C=O)c2c(O)c1-c1c(C)cc2c(C(C)C)c(O)c(O)c(C=O)c2c1O [Gossypol] | 0.833
13 | O=c1[nH]c2ccccc2n1C1CCN(CCCC(c2ccc(F)cc2)c2ccc(F)cc2)CC1 [Pimozide] | 0.782
14 | CC[C@H]1CN2CC[C@H]1C[C@H]2[C@H](O)c1ccnc2ccc(OC)cc12 [Hydroquinine hydrobromide hydrate] | 0.896
15 | C[C@@H]1O[C@@H](O[C@@H]2C=C3CC[C@@H]4[C@H](CC[C@]5(C)[C@@H](c6ccc(=O)oc6)CC[C@]45O)[C@@]3(C)CC2)[C@H](O)[C@H](O)[C@H]1O [Proscillaridin A] | 0.795
16 | C#CCN(C)[C@H](C)Cc1ccccc1 [Selegiline hydrochloride] | 0.851
17 | C[C@]12CC[C@@H](O)C[C@H]1CC[C@@H]1[C@@H]2CC[C@]2(C)C(=O)CC[C@@H]12 [3-alpha-Hydroxy-5-beta-androstan-17-one] | 0.843
18 | COc1ccc(CC2c3cc(OC)c(OC)cc3CCN2C)cc1OC (racemic) [Laudanosine (R,S)] | 0.951
19 | CCCC(C)(COC(N)=O)COC(=O)NC(C)C (centres undefined) [Carisoprodol] | 0.882
20 | C[C@@]12C(=O)OC(=O)[C@]1(C)[C@H]1CC[C@@H]2O1 [Cantharidin] | 0.875
21 | CCC1(C)CC(=O)NC(=O)C1 [Bemegride] | 0.962
22 | CN1C2CCC1CC(O)C2 (centres undefined) [Tropine] | 0.942

Three compounds already listed, arranged by molar mass, ascending.
Row | Structure (SMILES) | % Pdx1+ Ins1+
20 | C[C@@]12C(=O)OC(=O)[C@]1(C)[C@H]1CC[C@@H]2O1 [Cantharidin] | 0.875
13 | O=c1[nH]c2ccccc2n1C1CCN(CCCC(c2ccc(F)cc2)c2ccc(F)cc2)CC1 [Pimozide] | 0.782
15 | C[C@@H]1O[C@@H](O[C@@H]2C=C3CC[C@@H]4[C@H](CC[C@]5(C)[C@@H](c6ccc(=O)oc6)CC[C@]45O)[C@@]3(C)CC2)[C@H](O)[C@H](O)[C@H]1O [Proscillaridin A] | 0.795

Further structures follow:

Row | Structure (SMILES) | % Pdx1+ Ins1+
23 | C[N+]1(C)CCCC(OC(=O)C(O)(c2ccccc2)c2ccccc2)C1 (centres undefined) [Mepenzolate bromide] | 0.935
24 | OC(c1ccccc1)(c1ccccc1)C1CCNCC1 [Azacyclonol] | 1.12
25 | O=C(CCCN1CCC(n2c(=O)[nH]c3ccccc32)CC1)c1ccc(F)cc1 [Benperidol] | 0.842
26 | COc1ccc(C(=O)OC2C[C@H]3CC[C@@H](C2)N3C)cc1OC (some centres undefined) [Convolamine hydrochloride] | 0.853
27 | C[C@H]1CC[C@]2(NC1)O[C@H]1C[C@H]3[C@@H]4CC[C@H]5C[C@@H](O[C@@H]6O[C@H](CO)[C@H](O[C@@H]7O[C@H](CO)[C@@H](O)[C@H](O[C@@H]8OC[C@@H](O)[C@H](O)[C@H]8O)[C@H]7O[C@@H]7O[C@H](CO)[C@@H](O)[C@H](O)[C@H]7O)[C@H](O)[C@H]6O)CC[C@]5(C)[C@H]4CC[C@]3(C)[C@H]1[C@@H]2C [Tomatine] | 0.754
28 | COc1cc2c(cc1O)C[C@H]1c3c(cc(O)c(OC)c3-2)CCN1C [Boldine] | 0.886
29 | C[C@@H]1CN([C@H]2CC[C@](C#N)(c3ccc(F)cc3)CC2)CC[C@]1(C(=O)O)c1ccccc1 [Levocabastine hydrochloride] | 1.11
30 | CCC(=O)O[C@H]1CC[C@H]2[C@@H]3CCC4=CC(=O)CC[C@]4(C)[C@H]3CC[C@]12C [Testosterone propionate] | 0.992
31 | COc1ccc(OC)c(C(O)C(C)N)c1 (centres undefined) [Methoxamine hydrochloride] | 0.851
32 | C[C@@H]1CC[C@]2(NC1)O[C@H]1C[C@H]3[C@@H]4CC=C5C[C@@H](O)CC[C@]5(C)[C@H]4CC[C@]3(C)[C@H]1[C@@H]2C [Solasodine] | 0.94
33 | CN1C2CC(=O)CC1C(O)C2 (centres undefined) [6-Hydroxytropinone] | 1.02
34 | CO[C@@H]1C=C2CCN(C)[C@@H]2C2c3cc4c(cc3C(=O)OC21)OCO4 (some centres undefined) [Ungerine nitrate] | 0.818
35 | CN1C(=O)CCS(=O)(=O)C1c1ccc(Cl)cc1 (centres undefined) [Chlormezanone] | 1.16
36 | CC(=O)[C@H]1CC[C@H]2[C@@H]3CC[C@H]4C[C@H](O)CC[C@]4(C)[C@H]3C(=O)C[C@]12C [Alfaxalone] | 0.941
37 | CCCN1CCC[C@@H]2Cc3n[nH]cc3C[C@H]21 [(-)-Quinpirole hydrochloride] | 0.895
38 | CC(C)c1cccc(C(C)C)c1O [Propofol] | 1.05
39 | C[C@]12CC[C@H](O)C[C@H]1CC[C@@H]1[C@@H]2CC[C@]2(C)[C@@H](C3=CC(=O)OC3)CC[C@]12O [Digitoxigenin] | 0.937
40 | CN1CCc2cc3c(cc2[C@H]1[C@@H]1OC(=O)c2c1ccc1c2OCO1)OCO3 [Bicuculline (+)] | 0.946
41 | COC1=CC(=O)O[C@@H](/C=C/c2ccccc2)C1 [Kawain] | 1.13
42 | Oc1ccc2c3c1O[C@H]1[C@@H](O)CC[C@@]4(O)[C@@H](C2)N(CC2CCC2)CC[C@]314 [Nalbuphine hydrochloride] | 1.16
43 | CN1C[C@H](CNC(=O)OCc2ccccc2)C[C@@H]2c3cccc4c3c(cn4C)C[C@H]21 [Metergoline] | 0.475
44 | O=C(NCNC(=O)NC1C(=O)NC(=O)N1CO)NC1C(=O)NC(=O)N1CO (centres undefined) [Imidurea] | 1.05

Part of the list above, as a markdown table:

| Row | Structure (SMILES) | % Pdx1+ Ins1+ |
| --- | --- | --- |
| 38 | CC(C)c1cccc(C(C)C)c1O [Propofol] | 1.05 |
| 39 | C[C@]12CC[C@H](O)C[C@H]1CC[C@@H]1[C@@H]2CC[C@]2(C)[C@@H](C3=CC(=O)OC3)CC[C@]12O [Digitoxigenin] | 0.937 |

Continued:

Row | Structure (SMILES) | % Pdx1+ Ins1+
45 | CC(=O)O[C@H]1CC[C@@]2(C)C(=CC[C@@H]3[C@@H]2CC[C@]2(C)C(=O)CC[C@@H]32)C1 [Dehydroisoandosterone 3-acetate] | 0.869
46 | COc1cc2c(c(OC)c1OC)-c1ccc(OC)c(=O)cc1[C@@H](NC(C)=O)CC2 [Colchicine] | 0.465
47 | C[C@H]1O[C@@H](O[C@H]2CC[C@]3(C=O)[C@H]4CC[C@]5(C)[C@@H](C6=CC(=O)OC6)CC[C@]5(O)[C@@H]4CC[C@]3(O)C2)C[C@H](O)[C@@H]1O [Helveticoside] | 0.806
48 | COc1ccc2c(c1OC)CN1CCc3cc4c(cc3C1C2)OCO4 (centres undefined) [(d,l)-Tetrahydroberberine] | 0.849
49 | CC[N+]1(C)CCCC(OC(=O)C(O)(c2ccccc2)c2ccccc2)C1 (centres undefined) [Pipenzolate bromide] | 0.875
50 | CCCCCC[C@H]1C(=O)O[C@H](C)[C@H](NC(=O)c2cccc(NC=O)c2O)C(=O)O[C@@H](C)[C@@H]1OC(=O)CC(C)C [Antimycin A] | 0.055
51 | C=C1C/C(=C/C)C(=O)O[C@@H]2CCN3CC=C(COC(=O)[C@]1(C)O)[C@H]23 [Seneciphylline] | 0.804
52 | c1ccc2c(c1)OCC(C1=NCCN1)O2 (centres undefined) [Idazoxan hydrochloride] | 1.01
53 | C[C@@H]1C[C@@H]([C@H](O)CC2CC(=O)NC(=O)C2)C(=O)[C@@H](C)C1 [Cycloheximide] | 1.27
54 | COc1ccc2c(c1OC)C(=O)O[C@@H]2[C@H]1c2cc3c(cc2CCN1C)OCO3 [Hydrastine hydrochloride] | 0.907
55 | CC[C@@H](CO)NC(=O)[C@@H]1C=C2c3cccc4[nH]cc(c34)C[C@H]2N(C)C1 [Methylergometrine maleate] | 0.882
56 | O=c1[nH]oc2c1CCNC2 [THIP Hydrochloride] | 1.11
57 | c1cncc([C@@H]2CCCCN2)c1 [Anabasine] | 0.746
58 | CCN1C[C@]2(COC)CC[C@H](OC)[C@]34C5C[C@@H]6[C@@H](OC)C[C@@]7(OCO[C@@]7(C13)[C@@H](O)C24)C5[C@H]6OC (some centres undefined) [Delcorine] | 0.902
59 | CCN1C[C@]2(COC)CC[C@H](O)[C@]34C1[C@@](O)([C@@H](OC)[C@H]23)[C@@]1(O)C[C@H](OC)[C@H]2C[C@@H]4[C@@H]1[C@H]2OC [Delsoline] | 0.913
60 | O=[N+]([O-])O[C@H]1CO[C@H]2[C@@H]1OC[C@H]2O[N+](=O)[O-] [Isosorbide dinitrate] | 0.916
61 | CC(N)C(O)c1ccccc1 (centres undefined) [Phenylpropanolamine hydrochloride] | 0.86
62 | CC(C)C[C@H]1C(=O)N2CCC[C@H]2[C@]2(O)O[C@](NC(=O)[C@@H]3C=C4c5cccc6[nH]cc(c56)C[C@H]4N(C)C3)(C(C)C)C(=O)N12 [Ergocryptine-alpha] | 0.425
63 | O=C(CCCN1CCC2(CC1)C(=O)NCN2c1ccccc1)c1ccc(F)cc1 [Spiperone] | 1.04
64 | CC[C@@H](C)C(=O)O[C@H]1[C@H](O)[C@H]2[C@@H](CN3C[C@@H](C)CC[C@H]3[C@@]2(C)O)[C@@H]2C[C@]34O[C@]5(O)[C@@H](OC(=O)[C@@](C)(O)CC)CC[C@@]3(C)[C@@H]5[C@@H](OC(C)=O)[C@@H](OC(C)=O)[C@H]4[C@@]21O [Protoveratrine A] | 0.886
